Laboratory results as given in publication PMC5325358.

The chains behind the UniProt entries cited, without tags or fusion partners. Where a name states a change or a piece, a line headed by the entry shows the natural chain unless it says otherwise.
UniProt P61586: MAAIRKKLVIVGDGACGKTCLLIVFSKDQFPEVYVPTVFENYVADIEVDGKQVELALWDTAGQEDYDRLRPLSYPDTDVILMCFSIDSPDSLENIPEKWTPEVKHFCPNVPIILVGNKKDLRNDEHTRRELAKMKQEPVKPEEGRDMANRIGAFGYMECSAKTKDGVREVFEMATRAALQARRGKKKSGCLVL
UniProt Q9Y4F9: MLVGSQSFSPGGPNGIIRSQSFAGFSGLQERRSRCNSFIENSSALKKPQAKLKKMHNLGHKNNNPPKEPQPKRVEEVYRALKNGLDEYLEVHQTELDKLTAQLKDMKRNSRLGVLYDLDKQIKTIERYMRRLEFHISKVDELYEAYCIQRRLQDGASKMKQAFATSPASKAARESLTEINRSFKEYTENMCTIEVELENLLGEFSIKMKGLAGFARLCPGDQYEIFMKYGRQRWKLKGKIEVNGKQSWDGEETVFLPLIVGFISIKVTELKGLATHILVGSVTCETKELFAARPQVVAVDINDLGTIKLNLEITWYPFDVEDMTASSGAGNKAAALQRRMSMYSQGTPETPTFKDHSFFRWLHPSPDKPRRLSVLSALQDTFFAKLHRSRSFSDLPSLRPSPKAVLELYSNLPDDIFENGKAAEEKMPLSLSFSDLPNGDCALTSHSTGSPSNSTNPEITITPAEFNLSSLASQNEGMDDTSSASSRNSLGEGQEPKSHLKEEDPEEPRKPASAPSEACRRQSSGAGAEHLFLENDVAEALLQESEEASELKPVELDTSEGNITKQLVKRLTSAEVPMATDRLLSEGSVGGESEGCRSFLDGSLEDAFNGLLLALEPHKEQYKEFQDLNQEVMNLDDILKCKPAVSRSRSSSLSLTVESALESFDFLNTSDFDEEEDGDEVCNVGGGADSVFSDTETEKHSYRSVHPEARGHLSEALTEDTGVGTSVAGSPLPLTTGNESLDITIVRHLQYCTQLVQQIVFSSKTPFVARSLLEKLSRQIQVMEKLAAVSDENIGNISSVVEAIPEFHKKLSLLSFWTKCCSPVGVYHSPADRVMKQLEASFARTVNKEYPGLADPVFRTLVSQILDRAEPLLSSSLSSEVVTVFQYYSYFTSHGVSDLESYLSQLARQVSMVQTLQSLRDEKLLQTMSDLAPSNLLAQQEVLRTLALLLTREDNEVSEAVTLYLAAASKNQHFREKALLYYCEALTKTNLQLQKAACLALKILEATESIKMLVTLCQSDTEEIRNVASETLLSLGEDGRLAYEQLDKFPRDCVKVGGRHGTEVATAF
UniProt Q9UBN7: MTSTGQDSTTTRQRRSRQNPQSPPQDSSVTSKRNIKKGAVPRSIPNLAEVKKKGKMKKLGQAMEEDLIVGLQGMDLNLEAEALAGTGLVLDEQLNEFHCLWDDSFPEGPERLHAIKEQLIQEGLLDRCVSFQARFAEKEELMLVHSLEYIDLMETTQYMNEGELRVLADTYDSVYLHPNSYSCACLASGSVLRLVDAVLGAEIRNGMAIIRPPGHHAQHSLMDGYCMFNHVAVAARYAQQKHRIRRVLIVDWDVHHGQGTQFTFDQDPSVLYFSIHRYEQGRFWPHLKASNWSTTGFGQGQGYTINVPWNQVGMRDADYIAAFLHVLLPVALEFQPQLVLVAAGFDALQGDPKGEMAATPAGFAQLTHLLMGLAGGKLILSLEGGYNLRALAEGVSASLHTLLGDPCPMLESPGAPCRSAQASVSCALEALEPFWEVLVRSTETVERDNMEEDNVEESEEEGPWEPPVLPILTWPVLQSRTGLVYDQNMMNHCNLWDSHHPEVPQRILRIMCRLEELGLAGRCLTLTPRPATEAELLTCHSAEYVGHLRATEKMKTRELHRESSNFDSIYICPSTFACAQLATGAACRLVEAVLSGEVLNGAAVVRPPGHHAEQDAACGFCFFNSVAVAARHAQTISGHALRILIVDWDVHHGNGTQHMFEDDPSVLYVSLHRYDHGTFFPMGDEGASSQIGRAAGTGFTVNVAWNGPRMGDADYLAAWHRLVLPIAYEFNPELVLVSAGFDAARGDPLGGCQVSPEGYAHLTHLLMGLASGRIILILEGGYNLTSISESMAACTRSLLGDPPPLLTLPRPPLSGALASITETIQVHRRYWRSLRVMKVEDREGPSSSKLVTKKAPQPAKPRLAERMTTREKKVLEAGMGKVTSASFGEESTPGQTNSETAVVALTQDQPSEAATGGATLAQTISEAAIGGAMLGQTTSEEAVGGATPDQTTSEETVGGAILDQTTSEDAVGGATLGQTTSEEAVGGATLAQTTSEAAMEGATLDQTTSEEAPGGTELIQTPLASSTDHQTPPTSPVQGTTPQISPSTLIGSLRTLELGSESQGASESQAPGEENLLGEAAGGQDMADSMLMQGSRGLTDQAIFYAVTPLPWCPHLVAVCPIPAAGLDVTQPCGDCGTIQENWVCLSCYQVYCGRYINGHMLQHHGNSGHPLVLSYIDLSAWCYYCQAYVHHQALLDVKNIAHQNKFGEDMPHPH

Key:
[1] = target: GST-RhoA (UniProt P61586); experiment: pull-down; beads bearing GST-RhoA (Cytoskeleton) with lysates of transfected HEK293T cells; as described in ref. 9; only the target purified
[2] = target: FAM65B wild type, Myc-tagged (pEF-Myc vector) (UniProt Q9Y4F9); experiment: co-IP; anti-Myc (EZ myc beads) from lysates of transfected HEK293T cells, 2 h at 4°C, eluted with myc peptide; 10 mM HEPES pH 7.5, 150 mM KCl, 0.1% NP-40, with deacetylase, protease and phosphatase inhibitors; immunoblot
[3] = target: FAM65B S(x5)A, Myc-tagged (pEF-Myc vector) (UniProt Q9Y4F9); experiment: as above

binding [1] | binding [2] | binding [3] | Substance
no binding |  |  | FAM65B RL151-152AA-GFP mutant (from UniProt Q9Y4F9-2)
 | binds | no binding | HDAC6-GFP (from UniProt Q9UBN7 1-1215) (enzyme)

No constants are given. Whether binding was seen depends on the method and setting. In cells and extracts the contact can be indirect. For part of these data: Binding calls can cover weak binding; strength is not graded here.
